Assay results: article PMC7090148 (2020)

Target: T1, NTAP-tagged TRAPPC12 (mouse) (UniProt Q8K2L8)
T1 sequence: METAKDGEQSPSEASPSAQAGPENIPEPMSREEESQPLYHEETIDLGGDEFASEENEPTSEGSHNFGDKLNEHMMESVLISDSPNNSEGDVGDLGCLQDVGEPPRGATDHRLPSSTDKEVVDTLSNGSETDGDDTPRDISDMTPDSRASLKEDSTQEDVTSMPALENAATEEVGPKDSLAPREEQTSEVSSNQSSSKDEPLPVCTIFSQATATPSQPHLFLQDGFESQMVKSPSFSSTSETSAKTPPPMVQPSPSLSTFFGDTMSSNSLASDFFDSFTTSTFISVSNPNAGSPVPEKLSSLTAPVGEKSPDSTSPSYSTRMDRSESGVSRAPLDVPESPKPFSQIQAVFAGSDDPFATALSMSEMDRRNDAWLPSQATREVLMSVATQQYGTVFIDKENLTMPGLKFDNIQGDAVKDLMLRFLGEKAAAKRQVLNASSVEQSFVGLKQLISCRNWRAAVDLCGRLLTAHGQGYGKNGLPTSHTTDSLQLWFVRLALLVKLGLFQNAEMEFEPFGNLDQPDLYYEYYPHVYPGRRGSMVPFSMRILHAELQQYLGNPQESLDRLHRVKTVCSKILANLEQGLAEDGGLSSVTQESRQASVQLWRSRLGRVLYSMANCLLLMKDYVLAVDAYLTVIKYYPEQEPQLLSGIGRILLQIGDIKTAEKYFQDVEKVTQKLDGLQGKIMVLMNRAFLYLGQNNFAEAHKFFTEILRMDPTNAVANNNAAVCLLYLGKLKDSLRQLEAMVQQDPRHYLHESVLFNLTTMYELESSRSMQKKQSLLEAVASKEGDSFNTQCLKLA
Assay: affinity purification with mass spectrometry; tandem affinity purification (TAP) of NTAP-TRAPPC12; mass spectrometry

binding: binds
B1: Oral-facial-digital syndrome 1 protein found in the tandem affinity purification of NTAP-TRAPPC12 (protein, UniProt O75665 1-1012)
chain: MMAQSNMFTVADVLSQDELRKKLYQTFKDRGILDTLKTQLRNQLIHELMHPVLSGELQPRSISVEGSSLLIGASNSLVADHLQRCGYEYSLSVFFPESGLAKEKVFTMQDLLQLIKINPTSSLYKSLVSGSDKENQKGFLMHFLKELAEYHQAKESCNMETQTSSTFNRDSLAEKLQLIDDQFADAYPQRIKFESLEIKLNEYKREIEEQLRAEMCQKLKFFKDTEIAKIKMEAKKKYEKELTMFQNDFEKACQAKSEALVLREKSTLERIHKHQEIETKEIYAQRQLLLKDMDLLRGREAELKQRVEAFELNQKLQEEKHKSITEALRRQEQNIKSFEETYDRKLKNELLKYQLELKDDYIIRTNRLIEDERKNKEKAVHLQEELIAINSKKEELNQSVNRVKELELELESVKAQSLAITKQNHMLNEKVKEMSDYSLLKEEKLELLAQNKLLKQQLEESRNENLRLLNRLAQPAPELAVFQKELRKAEKAIVVEHEEFESCRQALHKQLQDEIEHSAQLKAQILGYKASVKSLTTQVADLKLQLKQTQTALENEVYCNPKQSVIDRSVNGLINGNVVPCNGEISGDFLNNPFKQENVLARMVASRITNYPTAWVEGSSPDSDLEFVANTKARVKELQQEAERLEKAFRSYHRRVIKNSAKSPLAAKSPPSLHLLEAFKNITSSSPERHIFGEDRVVSEQPQVGTLEERNDVVEALTGSAASRLRGGTSSRRLSSTPLPKAKRSLESEMYLEGLGRSHIASPSPCPDRMPLPSPTESRHSLSIPPVSSPPEQKVGLYRRQTELQDKSEFSDVDKLAFKDNEEFESSFESAGNMPRQLEMGGLSPAGDMSHVDAAAAAVPLSYQHPSVDQKQIEEQKEEEKIREQQVKERRQREERRQSNLQEVLERERRELEKLYQERKMIEESLKIKIKKELEMENELEMSNQEIKDKSAHSENPLEKYMKIIQQEQDQESADKSSKKMVQEGSLVDTLQSSDKVESLTGFSHEELDDSW

These are yes or no findings as the source states them, for the method shown. Binding seen in cells or lysates may run through a third protein. Here binding means that the protein was enriched with, or labelled near, the bait; the list need not be complete. Sequences can lack the tags named with a protein.
